Measured values as given in PMC4358907.
These are yes or no findings as the source states them, for the method shown. Binding seen in cells or lysates may run through a third protein. Tags and fused reporters may be left off the sequences shown.

Molecular target: T1, AtARP4 fused to nEYFP or cEYFP (Arabidopsis thaliana) (UniProt Q84M92)
T1 sequence: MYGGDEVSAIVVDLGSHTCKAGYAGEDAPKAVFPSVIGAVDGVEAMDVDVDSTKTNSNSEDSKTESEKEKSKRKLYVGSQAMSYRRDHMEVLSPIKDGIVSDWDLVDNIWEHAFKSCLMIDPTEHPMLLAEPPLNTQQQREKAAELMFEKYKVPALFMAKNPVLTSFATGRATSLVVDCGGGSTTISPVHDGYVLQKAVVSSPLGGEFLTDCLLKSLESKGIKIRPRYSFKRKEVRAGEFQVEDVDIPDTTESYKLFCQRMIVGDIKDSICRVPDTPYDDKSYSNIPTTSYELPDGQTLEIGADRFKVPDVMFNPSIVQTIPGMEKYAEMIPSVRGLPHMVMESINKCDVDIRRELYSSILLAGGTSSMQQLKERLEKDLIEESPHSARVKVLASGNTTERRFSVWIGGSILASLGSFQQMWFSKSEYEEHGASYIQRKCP
Test: split reporter; BiFC in Arabidopsis mesophyll protoplasts; proteins fused to the N-terminus of nEYFP and cEYFP; ECFP as transfection control; overnight incubation, confocal microscopy

B1: AtYAF9B (longer splice variant) fused to nEYFP or cEYFP (protein, UniProt F4IPK2 1-268)
chain: MESDIEILSEADASMRKLRIFGIDDREDENGRRRIKDVEVYVPIVCGSIAFYLGKKATEYRTHKWTVYVRGATNEDLGVVIKRVIFHLHPSFNNPTRVVDAPPFALSECGWGEFKIDITVFFHTDVCEKKLELSHVLKLNPENAYGPIPKSIKIPVVAESYNEVVFPDPFESFVARVHNHPAIQISNIPDGLNLPPPGVADTYYLMEKGDTKEHPLSPWFLKFSEVEELFKLTAARQKVQADIAKLKRQLIMVDGQPEGLESSSGYEC
B1 was tested, and the binding was “no binding”.
